Data taken from PubChem BioAssay AID1224904, deposited by Broad Institute (2016).

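293T-iDUX4 dual-reporter cells; luminescence of the tet-on Italica luciferase control is read after 24 h. The test concentration is not given here. Percent change in the Italica control signal; more negative values mean stronger inhibition, which points to nonspecific, tet-on or cytotoxic effects.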

Values are in %. Common to all entries: measured here: Italica tet-on control reporter. Part of the compounds only, not a random draw; the main read-out is not listed here.

Compound | activity change (%)
O=C(c1cccnc1)N1CC(=O)N2[C@H](CO)[C@@H](c3ccc(C#CCC4CCCC4)cc3)[C@@H]2C1 | -6.669
COc1ccc2c3c(n(C)c2c1)[C@H](CO)N(CC1CC1)CC31CCN(S(=O)(=O)c2cccs2)CC1 | -35.36
O=C(C[C@H]1CC[C@@H]2[C@H](COC[C@H](O)CN2C(=O)Nc2ccc(Cl)c(Cl)c2)O1)NCc1ccc(Cl)c(Cl)c1 | -20.68
Fc1ccc(-c2ccc(C3[C@@H]4CN(Cc5nccs5)C[C@H]3N4)cc2)cc1 (stereo partly specified) | -33.59
CCC(=O)N1CCC2(CC1)CN(Cc1cccc(F)c1)[C@@H](CO)c1c2c2ccc(OC)cc2n1C | -14.84
C[C@@H]1CN([C@@H](C)CO)C(=O)c2c(c3ccccc3n2C)-c2ccccc2CO[C@@H]1CN(C)Cc1ccccc1C(F)(F)F | -94
C[C@H]1CN([C@@H](C)CO)C(=O)c2c(c3ccccc3n2C)-c2ccccc2CO[C@H]1CN(C)C(=O)c1cc(Cl)cc(Cl)c1 | -97.31
O=C(c1ccccc1F)N1CC(=O)N2[C@H](CO)[C@@H](c3ccc(C#Cc4ccccc4)cc3)[C@@H]2C1 | -21.6
O=C(CC1CC1)N1[C@H](CO)[C@H](c2ccccc2)C12CN(Cc1cc(F)ccc1F)C2 | -8.22
N#Cc1cccc(-c2ccc3c(c2)[C@@H]2[C@@H](CCN2S(=O)(=O)c2ccccc2F)[C@H](CO)N3)c1 | -29.68
C[C@@H]1CN([C@H](C)CO)C(=O)CCCn2nncc2CO[C@@H]1CN(C)Cc1ccc(Oc2ccccc2)cc1 | -15.1
O=C(Nc1cccc(F)c1)N1C[C@@H]2N[C@H](C1)C2c1ccc(-c2ccccc2F)cc1 (stereo partly specified) | -93.68
Fc1cccc(-c2ccc(C3[C@@H]4CN(Cc5cncnc5)C[C@H]3N4)cc2)c1 (stereo partly specified) | -1.896
O=C(Cc1ccccn1)N[C@H]1CC[C@@H](CCNS(=O)(=O)c2cccc(F)c2)O[C@H]1CO | -19.44
Cc1ccc(S(=O)(=O)N2C[C@H](O)COC[C@@H]3O[C@H](CC(=O)NCc4ccc(Cl)c(Cl)c4)CC[C@H]32)cc1 | -48.28
O=C(C[C@@H]1CC[C@@H]2[C@H](COC[C@@H](O)CN2C(=O)c2ccccc2F)O1)NCc1ccc(-c2ccccc2)cc1 | -4.633
CCS(=O)(=O)N1CC2(CN(Cc3ccc(F)cc3)[C@@H](CO)c3c2c2ccc(OC)cc2n3C)C1 | -12.14
CCCNC(=O)[C@@H]1[C@@H](CO)[C@@H]2Cn3c(ccc(/C=C/c4ccccc4)c3=O)[C@@H]2N1CC | -3.576
Cc1ccc(S(=O)(=O)N2C[C@@H](O)COC[C@H]3O[C@H](CC(=O)NCc4ccc5c(c4)OCO5)CC[C@@H]32)cc1 | -31.18
Cc1ccccc1-c1ccc([C@H]2[C@@H](CO)N3CCCCN(C(=O)Nc4cccc(F)c4)C[C@@H]23)cc1 | 4.038
COC(=O)[C@H]1[C@H](CO)[C@H]2Cn3c(ccc(/C=C/c4ccccc4)c3=O)[C@@H]1N2CC1CCCC1 | -31.97
CN(C)C(=O)c1cccc(-c2ccc3c(c2)[C@@H]2[C@@H](CCN2S(=O)(=O)c2ccccc2)[C@H](CO)N3)c1 | -60.4
COc1ccc(S(=O)(=O)N[C@H]2CC[C@H](CCn3cc(-c4ccccc4F)nn3)O[C@@H]2CO)cc1 | -16.87
COc1ccc2c3c([nH]c2c1)[C@H](CO)N(Cc1ccc(F)cc1)CC31CCN(Cc2ccccn2)CC1 | -50.65
N#Cc1ccc(-c2ccc(C3[C@@H]4CN(C(=O)Nc5ccc(C(F)(F)F)cc5)C[C@H]3N4)cc2)cc1 (stereo partly specified) | -69.65
CO[C@H]1CN(C)C(=O)c2cc(NC(=O)c3nc4ccccc4s3)ccc2OC[C@@H](C)NC[C@@H]1C | -7.828
Cc1ccccc1-c1ccccc1[C@H]1[C@@H](C#N)N(C(=O)c2ccccc2)[C@H]1CO | -3.153
CCCC#Cc1ccc([C@H]2[C@H](CO)N3CCCCN(S(=O)(=O)Cc4ccccc4)C[C@@H]23)cc1 | -11.11
COCC(=O)N1CC(=O)N2[C@H](CO)[C@@H](c3ccc(C#CCc4ccccc4)cc3)[C@@H]2C1 | 7.352
COc1ccc(S(=O)(=O)N(C)C[C@@H]2OCc3ccccc3-c3c(n(C)c4ccccc34)C(=O)N([C@@H](C)CO)C[C@@H]2C)cc1 | -44.86
O=C(C1CC1)N1CC2(C1)[C@H](c1ccccc1)[C@H](CO)N2CC1CCCC1 | 1.525
O=C(C[C@@H]1CC[C@@H]2[C@H](COC[C@@H](O)CN2C(=O)Nc2ccc(C(F)(F)F)cc2)O1)NC1Cc2ccccc2C1 | -22.86
O=C(NCC1CC1)[C@@H]1[C@@H](CO)[C@@H]2Cn3c(ccc(C4=CCCCC4)c3=O)[C@@H]2N1Cc1ccccc1F | -16.17
CCC(=O)N1CC2(CCN(Cc3ccc(Cl)cc3)CC2)c2c(n(C)c3cc(OC)ccc23)[C@@H]1CO | -35.34
COc1ccc2c3c(n(C)c2c1)[C@@H](CO)N(Cc1ccccc1)CC31CCN(S(=O)(=O)c2ccc(C)cc2)CC1 | -86.06
CO[C@@H]1CN(C)C(=O)c2ccc(NC(=O)c3ccc(F)cc3)cc2OC[C@@H](C)N(C)C[C@@H]1C | 0.2579
C[C@H](CO)N1C[C@H](C)[C@H](CN(C)Cc2ccc(C(F)(F)F)cc2)OCc2cnnn2CCCC1=O | -6.844
C[C@H]1CN([C@@H](C)CO)C(=O)c2c(c3ccccc3n2C)-c2ccccc2CO[C@H]1CN(C)C(=O)CCC(F)(F)F | -57.58
Cc1cccc(S(=O)(=O)N2CCCCN3[C@H](CO)[C@@H](c4ccc(C#C[C@H](C)O)cc4)[C@@H]3C2)c1 | -71.07
C[C@H](O)C#Cc1ccc([C@@H]2[C@@H](CO)N3CCCCN(C(=O)Nc4ccccc4)C[C@@H]23)cc1 | -17.61
O=C(C[C@H]1CC[C@H](NC(=O)c2ccc3c(c2)OCO3)[C@@H](CO)O1)NCc1ccc(Oc2ccccc2)cc1 | -10.7
CN(C)C(=O)c1cccc(-c2ccc3c(c2)[C@@H]2[C@@H](CCN2C(=O)C2CCC2)[C@@H](CO)N3)c1 | -17.2
COc1cccc(NC(=O)N(C)C[C@@H]2OCc3ccccc3-c3c(n(C)c4ccccc34)C(=O)N([C@H](C)CO)C[C@@H]2C)c1 | -33.53
COc1ccc2c3c(n(C)c2c1)[C@H](CO)N(Cc1ccccc1F)CC31CCN(CC2CC2)CC1 | -22.47
O=C(NCC[C@H]1CC[C@@H](NS(=O)(=O)c2ccc(Cl)cc2)[C@@H](CO)O1)Nc1ccc(F)cc1 | -12.97
COc1cccc(S(=O)(=O)N2CCCCN3[C@@H](CO)[C@H](c4ccc(C#CC5CC5)cc4)[C@@H]3C2)c1 | -17.17
O=C(Nc1ccccc1F)N1CCCCN2[C@H](CO)[C@H](c3ccc(/C=C/c4ccccc4)cc3)[C@H]2C1 | -94.88
C[C@H]1CN([C@@H](C)CO)C(=O)c2c(c3ccccc3n2C)-c2ccccc2CO[C@@H]1CN(C)Cc1cccc(C(F)(F)F)c1 | -30.53
Cc1ccc(S(=O)(=O)N2C[C@@H](O)COC[C@H]3O[C@@H](CC(=O)NCc4ccc(Cl)c(Cl)c4)CC[C@@H]32)cc1 | -59.5
COc1ccc(S(=O)(=O)N2CC[C@H]3[C@H](CO)Nc4ccc(-c5cccc(C#N)c5)cc4[C@H]32)cc1 | -56.28
COc1ccccc1S(=O)(=O)N1CC[C@@H]2[C@H]1c1cc(-c3cccc(C#N)c3)ccc1N[C@@H]2CO | -77.46

The last 5 entries again:

Compound,activity change (%)
O=C(Nc1ccccc1F)N1CCCCN2[C@H](CO)[C@H](c3ccc(/C=C/c4ccccc4)cc3)[C@H]2C1,-94.88
C[C@H]1CN([C@@H](C)CO)C(=O)c2c(c3ccccc3n2C)-c2ccccc2CO[C@@H]1CN(C)Cc1cccc(C(F)(F)F)c1,-30.53
Cc1ccc(S(=O)(=O)N2C[C@@H](O)COC[C@H]3O[C@@H](CC(=O)NCc4ccc(Cl)c(Cl)c4)CC[C@@H]32)cc1,-59.5
COc1ccc(S(=O)(=O)N2CC[C@H]3[C@H](CO)Nc4ccc(-c5cccc(C#N)c5)cc4[C@H]32)cc1,-56.28
COc1ccccc1S(=O)(=O)N1CC[C@@H]2[C@H]1c1cc(-c3cccc(C#N)c3)ccc1N[C@@H]2CO,-77.46